# Assay results reported in patent publication US20250051279A1, “TRYPTAMINE COMPOSITIONS AND METHODS” (priority 2022, published 2025).
# Test: Salt form assessment (crystallization propensity, DSC/XRPD physical properties, appearance, counter-ion acceptability, salt suitability)
# Type: physicochemical
# Parameters: key: “+/+/+” indicates most favorable; “+/+” indicates more favorable; “+” indicates favorable; “−” indicates unfavorable; “−/−” indicates more unfavorable; “−/−/−” indicates most unfavorable
# Details: for Salt suitability: overall
# Protocol: Samples were analyzed by differential scanning calorimetry (DSC), X-ray powder diffraction (XRPD), and dynamic vapor sorption (DVS). In addition, the appearance and visual properties of each sample were assessed, in addition to propensity for crystallization.
# A summary of the data obtained from the analyses of the individual salt forms of Examples 1-9 are presented in Table 10, with advantageous and detrimental properties summarized using the following nomenclature: “+/+/+” indicates most favorable; “+/+” indicates more favorable; “+” indicates favorable; “−” indicates unfavorable; “−/−” indicates more unfavorable; “−/−/−” indicates most unfavorable.
Compound,Counter-ion physiological acceptability,Salt suitability
"CN(C)CCc1c[nH]c2ccccc12 [Example 1, 2-(1H-indol-3-yl)-N,N-dimethylethan-1-amine]",+/+/+,+/+/+
"CN(C)CCc1c[nH]c2ccccc12 [Example 2, 2-(1H-indol-3-yl)-N,N-dimethylethan-1-amine]",+/+/+,+/+/+
"CN(C)CCc1c[nH]c2ccccc12 [Example 3, 2-(1H-indol-3-yl)-N,N-dimethylethan-1-amine]",+,+/+
"CN(C)CCc1c[nH]c2ccccc12 [Example 4, 2-(1H-indol-3-yl)-N,N-dimethylethan-1-amine]",+/+/+,+
"CN(C)CCc1c[nH]c2ccccc12 [Example 5, 2-(1H-indol-3-yl)-N,N-dimethylethan-1-amine]",+,−
"CN(C)CCc1c[nH]c2ccccc12 [Example 6, 2-(1H-indol-3-yl)-N,N-dimethylethan-1-amine]",+,−/−/−
"CN(C)CCc1c[nH]c2ccccc12 [Example 7, 2-(1H-indol-3-yl)-N,N-dimethylethan-1-amine]",+,−/−/−
"CN(C)CCc1c[nH]c2ccccc12 [Example 8, 2-(1H-indol-3-yl)-N,N-dimethylethan-1-amine]",+/+/+,−/−/−
"CN(C)CCc1c[nH]c2ccccc12 [Example 9, 2-(1H-indol-3-yl)-N,N-dimethylethan-1-amine]",+/+/+,−/−/−
